Results: the supplement of paper PMC10735217
Where a name gives a salt, the structure may show the parent alone. The list shows a part of the results. Single values are uncertain here, since repeats match poorly.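 Human kidney-derived cells stably carry a construct in which eight TEAD-binding elements drive luciferase, measured by luminescence in a drug-repurposing library screen. A hit is any compound whose signal exceeds the plate mean by more than five robust Z scores.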

Test system: HEK293A TEAD-LUC reporter
Assay: TEAD-luciferase reporter activity (YAP activation), robust Z score vs plate; higher = stronger YAP/TEAD activation
Settings: 24 h

SMILES	TEAD-luciferase reporter activity (compound concentration: 200 nM)	TEAD-luciferase reporter activity (compound concentration: 2 uM)	TEAD-luciferase reporter activity (compound concentration: 10 uM)
Cn1c(=O)ccc2ccccc21 [1-methyl-2(1H)-quinoli]	inactive: 0.813	inactive: 0.485	inactive: -0.927
CCOc1cc2ncc(C#N)c(Nc3ccc(OCc4ccccn4)c(Cl)c3)c2cc1NC(=O)/C=C/[C@H]1CCCN1C [Pyrotinib]	inactive: 0.177	–	inactive: 0.0845
CS(=O)(=O)c1ccc(/C(=C2\CCOC2=O)c2ccc(Br)cc2)cc1	inactive: -0.993	inactive: -0.0639	inactive: -1.08
COc1ccccc1N1CCN(CCCC(O)c2ccc(F)cc2)CC1 (configuration not stated)	inactive: -1.48	inactive: 0.57	inactive: 1.26
C=C[C@]1(C)C[C@@H](OC(=O)CSCCN(CC)CC)[C@]2(C)[C@H](C)CC[C@]3(CCC(=O)[C@H]32)[C@@H](C)[C@@H]1O [Tiamulin]	inactive: 0.102	inactive: -0.279	inactive: 3.5
CCCCCCCCCCCCCCCCCC(=O)OCC(CO)OC(=O)CCCCCCCCCCCCCCCCC (configuration not stated)	inactive: 0.0554	inactive: -0.628	inactive: 0.748
CCCN(CCC)C(=O)C(Cc1ccc(OCCCN2CCN(C)CC2)cc1)NC(=O)c1ccc(C#N)cc1 (configuration not stated)	inactive: 0.00244	inactive: -1.13	inactive: 0.604
CC(CN(C)C)Oc1ccc(-c2nn(CC(=O)O)c3ncccc23)cc1 (configuration not stated)	inactive: -0.726	–	inactive: -0.318
C[C@@]1(O)[C@H](O)[C@@H](CO)O[C@H]1n1cnc2c(=O)[nH]c(N)nc21 [2'-C-Methylguanosine]	inactive: 3.95	inactive: -0.991	inactive: 2.17
O=C(Cc1c[nH]c2ccccc12)NCCc1c[nH]c2ccccc12	inactive: 1.4	inactive: 0.798	inactive: -1.71
CS(=O)(=O)OCCCNCCCOS(C)(=O)=O [improsulfan tosilate]	inactive: -1.46	inactive: 2.12	inactive: -0.663
CC(C)C[C@H](NC(=O)c1ccc(N2CCC(NC[C@H](O)c3ccc(O)c(NS(C)(=O)=O)c3)CC2)cc1)C(=O)O	inactive: -0.756	inactive: -0.997	inactive: 0.0307
Nc1nccc(Oc2ccc(NC(=O)c3c[nH]cc(-c4ccc(F)cc4)c3=O)cc2F)c1Cl	inactive: -0.689	inactive: 0.353	inactive: 0.732
Nc1cccc2c1C(=O)N(C1CCC(=O)NC1=O)C2=O (configuration not stated) [pomalidomide]	inactive: -0.648	inactive: -1.53	inactive: -1.1
CCC(=O)C(CCCCCCOc1ccc(OC)cc1Cl)C(=O)CC [arildone]	inactive: -0.572	inactive: -0.0303	inactive: -0.677
CN(C)C(=O)Cc1nn(-c2ccccc2)c(=O)c2c1c1ccc(Cl)cc1n2C	inactive: -0.516	inactive: 0.734	inactive: 2.41
CCC(=O)NC1Cc2cccc(C(=O)OCC(C)C)c2OB1O (configuration not stated)	inactive: 0.704	–	inactive: 1.82
Cc1cc([N+](=O)[O-])c(NS(=O)(=O)c2cccc(C(=O)O)c2)cc1-c1cccnc1 [Alofanib]	inactive: -1.11	inactive: -1.56	inactive: 1.46
CN(C)CC(=O)Nc1ccc2[nH]c(=O)c3ccccc3c2c1 [PARP Inhibitor VIII, PJ34]	inactive: -1.81	–	inactive: 1.54
CN(C)CC(=O)Nc1ccc2[nH]c(=O)c3ccccc3c2c1 [Parsepril]	–	inactive: 0.932	–
C[C@H]1[C@H]2CC[C@H]3[C@@H]4CC=C5C[C@@H](N(C)C)CC[C@]5(C)[C@H]4CC[C@]23CN1C	active: 5.3	inactive: -0.367	inactive: -1.51
CNn1cc(C(=O)O)c(=O)c2cc(F)c(N3CCN(C)CC3)cc21	inactive: -0.745	inactive: 3.59	inactive: 0.234
O=C(NCCS)c1cccc(C(=O)NCCS)c1 [Emeramide]	inactive: 0.232	inactive: -1.5	inactive: -0.235
CC(C)NC(=O)N1CCC2(CC1)CN(C(=O)CCCN)Cc1ccccc1O2	inactive: -1.58	–	inactive: -2.09
CS(=O)(=O)Nc1cc(C(O)CNC(c2ccc(OC(F)F)cc2)c2ccc(OC(F)F)cc2)ccc1O (configuration not stated)	inactive: -0.267	inactive: -0.873	inactive: -0.0439

Part of the list above in another layout.
O=C(NCCS)c1cccc(C(=O)NCCS)c1 [Emeramide]
  TEAD-luciferase reporter activity (compound concentration: 200 nM): inactive: 0.232; TEAD-luciferase reporter activity (compound concentration: 2 uM): inactive: -1.5; TEAD-luciferase reporter activity (compound concentration: 10 uM): inactive: -0.235
CC(C)NC(=O)N1CCC2(CC1)CN(C(=O)CCCN)Cc1ccccc1O2
  TEAD-luciferase reporter activity (compound concentration: 200 nM): inactive: -1.58; TEAD-luciferase reporter activity (compound concentration: 10 uM): inactive: -2.09

Continued.

SMILES	TEAD-luciferase reporter activity (compound concentration: 200 nM)	TEAD-luciferase reporter activity (compound concentration: 2 uM)	TEAD-luciferase reporter activity (compound concentration: 10 uM)
CC1(C)Oc2ccc(C#N)cc2[C@@H](n2ccccc2=O)[C@@H]1O	inactive: -1.4	inactive: -1.01	inactive: -0.859
CCOC(=O)Oc1c(OC)cc(C(=O)O[C@@H]2C[C@@H]3CN4CCc5c([nH]c6cc(OC)ccc56)[C@H]4C[C@@H]3[C@H](C(=O)OC)[C@H]2OC)cc1OC	–	inactive: -1.03	–
CCOC(=O)Oc1c(OC)cc(C(=O)O[C@@H]2C[C@@H]3CN4CCc5c([nH]c6cc(OC)ccc56)[C@H]4C[C@@H]3[C@H](C(=O)OC)[C@H]2OC)cc1OC [Syrosingopine]	inactive: 1.87	–	inactive: 1.74
CC[C@H](Nc1ncnc2[nH]cnc12)c1nc2cccc(F)c2c(=O)n1-c1ccccc1 [Idelalisib]	inactive: 0.67	inactive: -0.385	inactive: -0.313
Clc1ccc(-c2nc3c4ccccc4ccn3n2)cc1 [Lotrifen]	inactive: 1.29	–	inactive: -1.06
CCCCCO[C@]1(CO)OC[C@@H](O)[C@@H](O)[C@@H]1O	inactive: 1.02	inactive: -0.102	inactive: 0.0451
CCOC(=O)C1=C(COCCN)NC(C)=C(C(=O)OC)C1c1ccccc1Cl (configuration not stated) [amlodipine]	inactive: -0.626	inactive: -1.49	inactive: 0.841
CCNC(=O)[C@@H]1CCCN1C(=O)[C@H](CCCN=C(N)N)NC(=O)[C@H](CC(C)C)NC(=O)[C@@H](Cc1cn(Cc2ccccc2)cn1)NC(=O)[C@H](Cc1ccc(O)cc1)NC(=O)[C@H](CO)NC(=O)[C@H](Cc1c[nH]c2ccccc12)NC(=O)[C@H](Cc1cnc[nH]1)NC(=O)[C@@H]1CCC(=O)N1 [Histrelin Acetic Acid Salt]	–	inactive: -1.01	–
CCNC(=O)[C@@H]1CCCN1C(=O)[C@H](CCCN=C(N)N)NC(=O)[C@H](CC(C)C)NC(=O)[C@@H](Cc1cn(Cc2ccccc2)cn1)NC(=O)[C@H](Cc1ccc(O)cc1)NC(=O)[C@H](CO)NC(=O)[C@H](Cc1c[nH]c2ccccc12)NC(=O)[C@H](Cc1cnc[nH]1)NC(=O)[C@@H]1CCC(=O)N1 [histrelin]	inactive: 1.9	–	inactive: -0.018
CC/C=C\C/C=C\C/C=C\C/C=C\C/C=C\C/C=C\CCC(=O)OCC [omega-3-acid ethyl esters, Pronova]	inactive: 0.655	–	inactive: 3.24
CC/C=C\C/C=C\C/C=C\C/C=C\C/C=C\C/C=C\CCC(=O)OCC [omega-3-acid ethyl esters]	–	inactive: 1.06	–
O=C(N[C@H]1c2ccccc2C[C@H]1c1ccc(O)cc1)C(c1ccccc1)c1ccccc1	inactive: 1.37	inactive: -1.52	inactive: -1.34
O=C(NCCN1CCC(OC(c2ccccc2)c2ccccc2)CC1)c1cc2cccc(OCc3cccnc3)c2cc1O	inactive: 0.767	inactive: -0.604	inactive: -0.94
Clc1ccc(C(c2ccccc2Cl)C(Cl)Cl)cc1 (configuration not stated) [Mitotane]	inactive: 0.307	inactive: 1.35	inactive: -0.802
C=CC1=C(C)c2cc3[nH]c(cc4nc(cc5[nH]c(cc1n2)c(C)c5CCC(=O)O)C(CCC(=O)OC)=C4C)[C@@]1(C)C3=CC=C(C(=O)OC)[C@H]1C(=O)OC	inactive: -1.99	inactive: -2.11	inactive: 0.0158
CNC(=O)[C@H](Cc1ccccc1)NC(=O)[C@H](CC(C)C)[C@H](CSc1ccccc1)C(=O)NO	inactive: -0.849	inactive: 0.245	inactive: 0.673
CCCCNc1c(C(=O)OCC)c(C)nc2c1cnn2CC [tracazolate]	inactive: -0.35	inactive: -2.53	inactive: 0.0557
C=C(C)Cn1c(N)cc(=O)n(C)c1=O	inactive: -0.662	inactive: 0.135	inactive: 3.93
c1ccc2c(c1)CC2CCN1CCN(c2cccc3c2OCCO3)CC1 (configuration not stated)	inactive: -0.885	inactive: 0.161	inactive: 2.85
O=c1ccc2ccccc2o1 [Coumarin]	inactive: -0.0797	inactive: -1.56	inactive: 0.00991
Cc1cccc(C)c1OCCN1CCC(C(O)(c2ccc(F)cc2)c2ccc(F)cc2)CC1	inactive: -1.57	inactive: -0.075	inactive: -0.494
N#Cc1cccc(C2C=C(C(F)(F)F)NC3=C2C(=O)CCC3)c1 (configuration not stated)	inactive: 0.633	inactive: 0.819	inactive: 4.99
CCOC(=O)[C@H](CCc1ccccc1)N[C@@H](C)C(=O)N1C2CCC(CC2)[C@H]1C(=O)O	inactive: -1.66	inactive: 0.247	inactive: -0.0945
CC1=C2C[C@H]3[C@@H](CC[C@@H]4C[C@H](NS(C)(=O)=O)CC[C@@]43C)[C@@H]2CC[C@@]2(C1)O[C@@H]1C[C@H](C)CN[C@H]1[C@H]2C [Patidegib]	inactive: -0.749	–	inactive: 0.105
CC(C)C[C@H](NC(=O)[C@H](CO)NC(=O)[C@@H](NC(=O)CNC(=O)[C@@H](N)CCCCN)C(C)C)C(=O)N[C@@H](CO)C(=O)N[C@@H](Cc1ccc(O)cc1)C(=O)N[C@@H](CCCNC(=N)N)C(=O)NCCCCC(NC(=O)[C@H](CCCNC(=N)N)NC(=O)[C@H](Cc1ccc(O)cc1)NC(=O)[C@H](CO)NC(=O)[C@H](CC(C)C)NC(=O)[C@H](CO)NC(=O)[C@@H](NC(=O)CNC(=O)[C@@H](N)CCCCN)C(C)C)C(N)=O (some centres not stated)	inactive: -0.184	inactive: 0.413	inactive: 0.0724
